Taken from: PubChem BioAssay AID652243 (Drosophila RNAi Screening Center, 2013)
The deposit covers about 24,000 reagents; shown is a random part of those with a known target gene and a result. Over the whole deposit, 246 (1%) are marked active. 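Plates not normalised; calls are printed but the firefly/Renilla ratio behind them is not deposited; fold cut for lowering reported inconsistently.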 The raw values are shown without normalisation. Names joined by + are all predicted targets of the reagent. Not given: the amount of reagent.

- Test: 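Knock-downs that decrease or increase androgen receptor reporter signal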 (primary screen)
- System: Drosophila S2R+ cells
- Reagent: long dsRNA against Drosophila genes
- Time to read-out: 72 h (48 h, then 24 h hormone)
- Treatment: synthetic androgen R1881 at 10 nM for 24 h
- Measured: 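Firefly light from an androgen-responsive reporter and Renilla control light per well, raw and unnormalised, for each of two replicates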
- Direction: firefly reporter light: higher = more light from androgen-responsive reporter; Renilla control light: higher = more constitutive control signal (cell number, transfection)
- Rule for the call: 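Across duplicate plates, a knock-down whose log firefly/Renilla ratio shifted a set fold down or up from the GFP/LacZ control mean was a hit; the downward cut appears as both 1.5 and 3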
- Meaning of the calls: active = hit: reporter lowered or raised; inactive = no hit

| gene | dsRNA | firefly reporter light, replicate 1 | firefly reporter light, replicate 2 | Renilla control light, replicate 1 | Renilla control light, replicate 2 | call |
| --- | --- | --- | --- | --- | --- | --- |
| Vha13 | DRSC16895 | 2.22e5 | 2.33e5 | 2.39e6 | 2.89e6 | inactive |
| Atox1 | DRSC22416 | 4.32e5 | 9.42e5 | 8.01e5 | 1.15e6 | inactive |
| Fip1 | DRSC12147 | 40916 | 20877 | 4.55e5 | 1.69e5 | inactive |
| CG32195 | DRSC09533 | 2.07e5 | 1.65e5 | 3.77e5 | 3.16e5 | inactive |
| CG6431 | DRSC02956 | 1.81e5 | 1.98e5 | 1.54e6 | 1.57e6 | inactive |
| DIP-iota | DRSC02140 | 2.36e5 | 2.50e5 | 1.41e6 | 1.61e6 | inactive |
| DIP-iota | DRSC23965 | 8.23e5 | 9.34e5 | 7.76e5 | 6.60e5 | inactive |
| gce | DRSC19613 | 3.22e5 | 4.40e5 | 3.23e6 | 4.25e6 | inactive |
| gce | DRSC19974 | 2.94e5 | 2.79e5 | 1.79e6 | 1.78e6 | inactive |
| gce | DRSC23808 | 1.45e6 | 9.79e5 | 6.05e5 | 5.36e5 | inactive |
| gce | DRSC25266 | 6.74e5 | 3.16e5 | 6.04e5 | 5.73e5 | inactive |
| Ref2 | DRSC02563 | 1.24e5 | 1.74e5 | 1.20e6 | 1.62e6 | inactive |
| CG4880 | DRSC19923 | 89024 | 73296 | 6.23e5 | 7.88e5 | inactive |
| CG30484 | DRSC05457 | 1.35e5 | 1.50e5 | 2.67e5 | 4.11e5 | inactive |
| CG31626 + CG8677 | DRSC21844 | 2.43e5 | 3.46e5 | 1.04e6 | 1.18e6 | inactive |
| CG31626 + CG8677 | DRSC25078 | 5.10e5 | 4.92e5 | 3.91e5 | 4.70e5 | inactive |
| OS9 | DRSC02700 | 71111 | 1.04e5 | 1.06e6 | 1.03e6 | inactive |
| OS9 | DRSC27743 | 3.88e5 | 4.14e5 | 8.67e5 | 9.29e5 | inactive |
| CG8372 | DRSC03086 | 8.72e5 | 1.00e6 | 2.09e6 | 1.57e6 | inactive |
| CG12395 | DRSC19453 | 2.55e5 | 2.94e5 | 1.92e6 | 1.49e6 | inactive |
| CG13978 | DRSC14720 | 1.91e5 | 2.15e5 | 1.99e6 | 2.97e6 | inactive |
| CG3408 | DRSC10360 | 1.81e5 | 1.51e5 | 1.64e6 | 1.04e6 | inactive |
| Liprin-beta | DRSC09795 | 1.47e5 | 68858 | 1.56e6 | 1.03e6 | inactive |
| Liprin-beta | DRSC23339 | 6.98e5 | 7.90e5 | 1.18e6 | 1.10e6 | inactive |
| Liprin-beta | DRSC28695 | 5.28e5 | 5.52e5 | 1.08e6 | 1.06e6 | inactive |

3 of these entries in another layout.
{"gene":"CG8372","dsRNA":"DRSC03086","firefly reporter light, replicate 1":8.72e5,"firefly reporter light, replicate 2":1.00e6,"Renilla control light, replicate 1":2.09e6,"Renilla control light, replicate 2":1.57e6,"call":"inactive"}
{"gene":"CG12395","dsRNA":"DRSC19453","firefly reporter light, replicate 1":2.55e5,"firefly reporter light, replicate 2":2.94e5,"Renilla control light, replicate 1":1.92e6,"Renilla control light, replicate 2":1.49e6,"call":"inactive"}
{"gene":"CG13978","dsRNA":"DRSC14720","firefly reporter light, replicate 1":1.91e5,"firefly reporter light, replicate 2":2.15e5,"Renilla control light, replicate 1":1.99e6,"Renilla control light, replicate 2":2.97e6,"call":"inactive"}
